Some of the results follow. The main result of the screen is listed elsewhere. These columns were measured beside it and carry no call. Most of these compounds were active or inconclusive in the main read-out, so they are no random draw. The note in brackets gives the kind of curve behind each potency; many fits are weak.
Test: qHTS Assay for Lipid Storage Modulators in Drosophila S3 Cells;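 as to cell number change: cells counted by Cell Tracker Red CMTPX staining in the red channel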
Settings: BODIPY lipid droplet fluorescence, 18-24 h; for cell number change: measured here: cell count max response, cells fed with added oleic acid
How it was run: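 Laser-scanning cytometry quantifies lipid droplet accumulation (500–530 nm total intensity; droplet/cell object ratio) in oleic acid-fed (400 uM added) Drosophila S3 cells treated with a concentration series. 20 uM Triacsin C defined 100% inhibition.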

[1] = measured here: lipid fluorescence (Fed channel) AC50, cells fed with added oleic acid
[2] = measured here: cell number channel AC50, cells fed with added oleic acid

Row | Compound | cell number change [%] | AC50 [1] | AC50 [2]
1 | S=C(Nc1cccnc1)NC1CCCC1 | 13 | 461 nM [rising, full curve, poor fit] | –
2 | CC(=O)Nc1ccccc1NC(=O)c1cc(C)ccc1C | 30 | 20600 nM [rising, single point] | –
3 | Cc1ccc(C2(c3ccccc3)NC(=O)N(CC(=O)NC3CCCCC3)C2=O)cc1C (stereo not drawn) | 24 | – | –
4 | CC1Cc2ccccc2N1C(=O)COC(=O)c1cccc(Br)c1 (stereo not drawn) | -3.38 | 2060 nM [rising, partial curve, poor fit] | –
5 | C=CCOc1ccc(/C=N/N2C(=O)C(CC(=O)Nc3ccc(F)cc3F)SC2=NC)cc1 (stereo not drawn) | – | 16400 nM [falling, partial curve] | –
6 | Cc1ccccc1OCc1nc2ccc(S(=O)(=O)N3CCOCC3)cc2[nH]1 | 21 | – | 3260 nM [rising, partial curve]
7 | Cc1nc2nc[nH]n2c(=O)c1NS(=O)(=O)c1ccc(F)cc1 | – | 580 nM [falling, full curve] | 517 nM [falling, single point]
8 | CCOC(=O)C1=C(c2ccccc2)NC(N)=NC1c1ccc(OCc2ccc(Cl)cc2)c(OC)c1 (stereo not drawn) | -64.2 | – | 23100 nM [falling, single point]
9 | Cc1ccc2nc(SCc3nc4c(cnn4-c4ccccc4)c(=O)[nH]3)[nH]c2c1 | -53.7 | – | 14600 nM [falling, single point]
10 | COc1ccc(N2CCN(c3oc(COc4ccccc4Cl)nc3C#N)CC2)cc1 | -1.72 | 326 nM [falling, full curve] | –
11 | Cc1ccc(S(=O)(=O)NCCC(=O)NCc2ccc3c(c2)OCO3)cc1C | 85.7 | – | 9200 nM [rising, partial curve]
12 | Cc1ccc(S(=O)(=O)N2CCN(Cc3ccco3)CC2)cc1C | -22.8 | 29100 nM [rising, single point] | –
13 | Cn1c(N)nc2ccccc2c1=O | -47.5 | – | –
14 | O=C(c1cnccn1)N(c1ccccc1)C1(C(=O)NC2CCCCC2)CCCCC1 | -23.4 | 580 nM [falling, partial curve, poor fit] | –
15 | Oc1ccc(CNc2ccccc2F)c2cccnc12 | -25.6 | – | –
16 | CCn1c(=O)c(=O)[nH]c2cc(C(=O)Nc3ccc(S(=O)(=O)N4CCCC4)cc3)ccc21 | -42 | 1300 nM [falling, full curve] | 4110 nM [falling, full curve]
17 | COc1ccc(-n2c(=S)[nH]c3cc(C(=O)Nc4ccc(C)c(F)c4)ccc3c2=O)c(OC)c1 | 31.5 | 4110 nM [falling, full curve] | –
18 | CN1CCN(C(=O)c2cccc(S(=O)(=O)N3CCCCC3)c2)CC1 | -5.82 | 164 nM [falling, full curve, poor fit] | –
19 | Cc1ccnc(NC(=O)CCC(=O)N(CC(=O)NC(C)(C)C)Cc2ccc3c(c2)OCO3)c1 | – | 164 nM [falling, full curve] | –

Reformatted: entries from further up.
Row,Compound,cell number change [%],AC50 [1],AC50 [2]
3,Cc1ccc(C2(c3ccccc3)NC(=O)N(CC(=O)NC3CCCCC3)C2=O)cc1C (stereo not drawn),24,–,–
8,CCOC(=O)C1=C(c2ccccc2)NC(N)=NC1c1ccc(OCc2ccc(Cl)cc2)c(OC)c1 (stereo not drawn),-64.2,–,"23100 nM [falling, single point]"
15,Oc1ccc(CNc2ccccc2F)c2cccnc12,-25.6,–,–
17,COc1ccc(-n2c(=S)[nH]c3cc(C(=O)Nc4ccc(C)c(F)c4)ccc3c2=O)c(OC)c1,31.5,"4110 nM [falling, full curve]",–

Later entries.

Row | Compound | cell number change [%] | AC50 [1] | AC50 [2]
20 | O=[N+]([O-])c1ccc(OC/C=C2\Oc3ccc([N+](=O)[O-])cc3C2N2CCOCC2)cc1 (stereo not drawn) | – | – | 146 nM [rising, full curve, poor fit]
21 | CCC(C)n1c(C)nc2c(c1=O)c1nc3ccccc3nc1n2-c1ccc2c(c1)OCCO2 (stereo not drawn) | 7.51 | 1840 nM [rising, partial curve, poor fit] | –
22 | COc1ccc(NC(=O)CSc2nnc3ccc(-c4cccnc4)nn23)cc1 | – | 164 nM [rising, full curve, poor fit] | –
23 | COCCSc1ccccc1C(=O)Nc1ccncc1 | 10.3 | 2910 nM [rising, partial curve] | –
24 | CCN(Cc1ccc(N(C)C)cc1)C(C)C(=O)Nc1ccc(S(=O)(=O)N2CCCC2)cc1 (stereo not drawn) | -32 | 14600 nM [falling, partial curve, poor fit] | –
25 | CCOC(=O)Cc1csc(N/C(=N/S(=O)(=O)c2ccc(Cl)cc2)c2ccccc2)n1 | 50 | – | 29100 nM [rising, single point]
26 | C#CCSc1nc2ccccc2n1C(=O)c1ccc(S(=O)(=O)N2CCCCC2)cc1 | – | 29100 nM [falling, single point] | –
27 | CCOc1cc(CNn2nnnc2N)cc(Cl)c1OCC(=O)NC(C)(C)C | 5.44 | – | 731 nM [falling, single point]
28 | O=c1oc(-c2ccc(Br)o2)nc2ccccc12 | -12.8 | – | 4.61 nM [falling, full curve, poor fit]
29 | O=C(NC(=O)c1ccccc1)OCC(F)(F)F | -24.8 | 3660 nM [falling, full curve] | 184 nM [falling, full curve, poor fit]
30 | CCO[C@H]1OC(C(=O)N2CCN(Cc3ccc4c(c3)OCO4)CC2)=C[C@@H](c2ccc(Br)cc2)[C@@H]1CCCO | -24.4 | 20600 nM [falling, single point] | –
31 | O=C(NC1CCCC1)c1sc(=S)n2c1[nH]c(=O)c1ccccc12 | -12.2 | 5.17 nM [falling, full curve, poor fit] | –
32 | CN(C)S(=O)(=O)N(CC(=O)Nc1cccc(F)c1)c1ccccc1 | -10.2 | – | –
33 | COc1ccc(NC(=O)C2C(=O)NC3(C)CC2c2ccccc2O3)cc1 (stereo not drawn) | -2.29 | 5.8 nM [falling, full curve, poor fit] | 5.8 nM [falling, full curve, poor fit]
34 | CCOc1ccc2nc(NCCNC(=O)C3CC3)c(C)cc2c1 | 36.1 | 580 nM [rising, partial curve] | 1300 nM [rising, full curve]
35 | CCOC(=O)c1c(C)[nH]c(C)c1S(=O)(=O)N(C)CC(=O)N1CCN(c2ccc(OC)cc2)CC1 | -21.1 | 29100 nM [falling, single point] | –
36 | COc1cccc2cc(C(=O)N3CCN(c4ccccc4F)CC3)c(=O)oc12 | 121 | – | 29100 nM [rising, single point]
37 | COc1ccc(C2SCC(=O)N2CCc2ccc(OC)c(OC)c2)cc1 (stereo not drawn) | -49.5 | 32600 nM [falling, single point] | 20600 nM [falling, single point]
38 | NC(CO)C(=O)NNCc1ccc(O)c(O)c1O (stereo not drawn) | 2.71 | 820 nM [rising, full curve, poor fit] | –

Row | Compound | cell number change [%] | AC50 [1] | AC50 [2]
39 | CCn1nnc2cc(C(=O)NCCc3ccccc3F)ccc21 | 25 | 29100 nM [falling, single point] | –
40 | Cc1ccc(C(CC(=O)O)Nc2nc(N3CCCCC3)nc(N3CCCCC3)n2)cc1 (stereo not drawn) | -30.8 | 731 nM [rising, full curve] | 32600 nM [falling, single point]
41 | CC(=O)c1c[nH]c(C(=O)NC2CCCCCC2)c1 | – | 820 nM [rising, full curve, poor fit] | –
42 | CCOC(=O)c1c(-c2ccccc2)csc1NC(=S)NC | -50.4 | 461 nM [falling, full curve, poor fit] | 6510 nM [falling, partial curve, poor fit]
43 | N#Cc1cc2sc3nnc(-c4ccncc4)n3c2cc1C#N | -12 | 29100 nM [falling, single point] | –
44 | Cc1nn(C)c(C)c1NC(=O)Nc1cccc(C(F)(F)F)c1 | -13.6 | 2910 nM [rising, partial curve, poor fit] | –
45 | CCCN1C(=S)c2ccccc2C1c1ccccc1 (stereo not drawn) | -19 | 6510 nM [falling, partial curve] | –
46 | COc1cccc(C(=O)Nc2cc(C)nn2-c2ccccc2)c1OC | 5.13 | 5170 nM [falling, single point] | –
47 | CCOc1ccc(C(=O)Nc2cccc3ncccc23)cc1Cl | 18.8 | 580 nM [rising, single point] | –
48 | COc1cccc(OC)c1C(=O)NC(=S)Nc1ccc2c(c1)Cc1ccccc1-2 | -15.3 | 2060 nM [falling, full curve] | 6510 nM [falling, single point]
49 | CN1CCN(C(=O)c2c(O)c3cccc4c3n(c2=O)CC4)CC1 | 30.5 | – | 411 nM [rising, partial curve, poor fit]
50 | CCN(Cc1cc2cccc(C)c2[nH]c1=O)C(=O)c1ccccc1OC | 39.7 | 9200 nM [rising, partial curve] | 4.61 nM [rising, full curve, poor fit]
51 | O=C(c1cccnc1)N1CCN(S(=O)(=O)c2cccc(Cl)c2)CC1 | 21.5 | 2310 nM [rising, partial curve, poor fit] | 2060 nM [rising, full curve, poor fit]
52 | CC1CCCCC1NC(=O)c1ccc(S(=O)(=O)N2CCN(C)CC2)cc1 (stereo not drawn) | 10.1 | 2910 nM [rising, full curve, poor fit] | –
53 | Cc1oc(-c2ccc(F)cc2)nc1CN1CCCC(C(=O)N2CCOCC2)C1 (stereo not drawn) | 21 | 29100 nM [rising, single point] | –
54 | CNC(=O)c1ccc(OC2CSC2)cc1 | – | 103 nM [falling, full curve, poor fit] | –
55 | COC(=O)c1cc(COc2ccc3oc(C)c(C(=O)OC)c3c2)c(C)o1 | 8.43 | 29100 nM [rising, single point] | –
56 | COc1ccccc1NC(=O)CN1CCN(CC(=O)Nc2cc(C)ccc2OC)CC1 | 8.33 | – | –
57 | CC1=C(C(=O)OCCNC(=O)c2ccccc2O)C(c2ccccc2[N+](=O)[O-])C(C(=O)OCC2CCCO2)=C(C)N1 (stereo not drawn) | -48.5 | 25900 nM [falling, single point] | 32600 nM [falling, single point]
